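A panel of P. falciparum strains inside erythrocytes is exposed to compounds for three days, then a DNA-binding dye reports the amount of parasite DNA. Each compound was titrated across a series from about 0.000037 to 29 µM. The number is the fitted AC50, the concentration giving a half-maximal change in signal; a lower value means higher potency, whether the curve shows a decrease or an increase. Calls follow the curve class and fit quality: every row here is inconclusive, covering signal-raising curves and weak, poorly fitted, partial or highest-dose-only inhibition curves.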

Values are in µM. Every entry below has the call inconclusive. These entries are mostly ones the record files as inconclusive; other results of the assay are not listed here. Potencies fitted to partial, single-point or poorly fitting curves are rough.

| Compound | condition | Potency (µM) | curve as filed |
|---|---|---|---|
| `CO[C@H]1[C@H](O[C@H]2O[C@@H](C)[C@@H](O[C@@H]3C[C@](C)(O)[C@H](OC(=O)CC(C)C)[C@H](C)O3)[C@@H](N(C)C)[C@@H]2O)[C@@H](CC=O)C[C@@H](C)[C@@H](O)/C=C\C=C/C[C@@H](C)OC(=O)C[C@H]1OC(C)=O` | CP217 | 1.413 | inhibitor, full curve, poor fit |
| `CO[C@H]1[C@H](O[C@H]2O[C@@H](C)[C@@H](O[C@@H]3C[C@](C)(O)[C@H](OC(=O)CC(C)C)[C@H](C)O3)[C@@H](N(C)C)[C@@H]2O)[C@@H](CC=O)C[C@@H](C)[C@@H](O)/C=C\C=C/C[C@@H](C)OC(=O)C[C@H]1OC(C)=O` | CP191 | 3.981 | inhibitor, partial curve |
| `CO[C@H]1[C@H](O[C@H]2O[C@@H](C)[C@@H](O[C@@H]3C[C@](C)(O)[C@H](OC(=O)CC(C)C)[C@H](C)O3)[C@@H](N(C)C)[C@@H]2O)[C@@H](CC=O)C[C@@H](C)[C@@H](O)/C=C\C=C/C[C@@H](C)OC(=O)C[C@H]1OC(C)=O` | CP297 | 2.031 | inhibitor, partial curve |
| `CO[C@H]1[C@H](O[C@H]2O[C@@H](C)[C@@H](O[C@@H]3C[C@](C)(O)[C@H](OC(=O)CC(C)C)[C@H](C)O3)[C@@H](N(C)C)[C@@H]2O)[C@@H](CC=O)C[C@@H](C)[C@@H](O)/C=C\C=C/C[C@@H](C)OC(=O)C[C@H]1OC(C)=O` | ATS189 | 3.548 | inhibitor, single point |
| `CO[C@H]1[C@H](O[C@H]2O[C@@H](C)[C@@H](O[C@@H]3C[C@](C)(O)[C@H](OC(=O)CC(C)C)[C@H](C)O3)[C@@H](N(C)C)[C@@H]2O)[C@@H](CC=O)C[C@@H](C)[C@@H](O)/C=C\C=C/C[C@@H](C)OC(=O)C[C@H]1OC(C)=O` | DIV30 | 5.726 | inhibitor, single point |
| `CO[C@H]1[C@H](O[C@H]2O[C@@H](C)[C@@H](O[C@@H]3C[C@](C)(O)[C@H](OC(=O)CC(C)C)[C@H](C)O3)[C@@H](N(C)C)[C@@H]2O)[C@@H](CC=O)C[C@@H](C)[C@@H](O)/C=C\C=C/C[C@@H](C)OC(=O)C[C@H]1OC(C)=O` | CP286 | 0.8913 | inhibitor, partial curve |
| `CO[C@H]1[C@H](O[C@H]2O[C@@H](C)[C@@H](O[C@@H]3C[C@](C)(O)[C@H](OC(=O)CC(C)C)[C@H](C)O3)[C@@H](N(C)C)[C@@H]2O)[C@@H](CC=O)C[C@@H](C)[C@@H](O)/C=C\C=C/C[C@@H](C)OC(=O)C[C@H]1OC(C)=O` | CP185 | 1.585 | inhibitor, partial curve |
| `CO[C@H]1[C@H](O[C@H]2O[C@@H](C)[C@@H](O[C@@H]3C[C@](C)(O)[C@H](OC(=O)CC(C)C)[C@H](C)O3)[C@@H](N(C)C)[C@@H]2O)[C@@H](CC=O)C[C@@H](C)[C@@H](O)/C=C\C=C/C[C@@H](C)OC(=O)C[C@H]1OC(C)=O` | GB4 | 4.053 | inhibitor, partial curve |
| `CO[C@H]1[C@H](O[C@H]2O[C@@H](C)[C@@H](O[C@@H]3C[C@](C)(O)[C@H](OC(=O)CC(C)C)[C@H](C)O3)[C@@H](N(C)C)[C@@H]2O)[C@@H](CC=O)C[C@@H](C)[C@@H](O)/C=C\C=C/C[C@@H](C)OC(=O)C[C@H]1OC(C)=O` | AA1029 | 1.585 | inhibitor, partial curve |
| `CO[C@H]1[C@H](O[C@H]2O[C@@H](C)[C@@H](O[C@@H]3C[C@](C)(O)[C@H](OC(=O)CC(C)C)[C@H](C)O3)[C@@H](N(C)C)[C@@H]2O)[C@@H](CC=O)C[C@@H](C)[C@@H](O)/C=C\C=C/C[C@@H](C)OC(=O)C[C@H]1OC(C)=O` | HB3 | 3.162 | inhibitor, partial curve |
| `CO[C@H]1[C@H](O[C@H]2O[C@@H](C)[C@@H](O[C@@H]3C[C@](C)(O)[C@H](OC(=O)CC(C)C)[C@H](C)O3)[C@@H](N(C)C)[C@@H]2O)[C@@H](CC=O)C[C@@H](C)[C@@H](O)/C=C\C=C/C[C@@H](C)OC(=O)C[C@H]1OC(C)=O` | CP305 | 1.811 | inhibitor, partial curve |
| `CO[C@H]1[C@H](O[C@H]2O[C@@H](C)[C@@H](O[C@@H]3C[C@](C)(O)[C@H](OC(=O)CC(C)C)[C@H](C)O3)[C@@H](N(C)C)[C@@H]2O)[C@@H](CC=O)C[C@@H](C)[C@@H](O)/C=C\C=C/C[C@@H](C)OC(=O)C[C@H]1OC(C)=O` | CP315 | 5.103 | inhibitor, partial curve |
| `CO[C@H]1[C@H](O[C@H]2O[C@@H](C)[C@@H](O[C@@H]3C[C@](C)(O)[C@H](OC(=O)CC(C)C)[C@H](C)O3)[C@@H](N(C)C)[C@@H]2O)[C@@H](CC=O)C[C@@H](C)[C@@H](O)/C=C\C=C/C[C@@H](C)OC(=O)C[C@H]1OC(C)=O` | DFO2036 | 0.8913 | inhibitor, full curve, poor fit |
| `CO[C@H]1[C@H](O[C@H]2O[C@@H](C)[C@@H](O[C@@H]3C[C@](C)(O)[C@H](OC(=O)CC(C)C)[C@H](C)O3)[C@@H](N(C)C)[C@@H]2O)[C@@H](CC=O)C[C@@H](C)[C@@H](O)/C=C\C=C/C[C@@H](C)OC(=O)C[C@H]1OC(C)=O` | CP265 | 2.818 | inhibitor, partial curve |
| `CO[C@H]1[C@H](O[C@H]2O[C@@H](C)[C@@H](O[C@@H]3C[C@](C)(O)[C@H](OC(=O)CC(C)C)[C@H](C)O3)[C@@H](N(C)C)[C@@H]2O)[C@@H](CC=O)C[C@@H](C)[C@@H](O)/C=C\C=C/C[C@@H](C)OC(=O)C[C@H]1OC(C)=O` | CP335 | 2.558 | inhibitor, partial curve |
| `N[C@@H](Cc1cc(I)c(Oc2ccc(O)c(I)c2)c(I)c1)C(=O)O` | CP335 | 19.01 | inhibitor, single point |
| `N[C@@H](Cc1cc(I)c(Oc2ccc(O)c(I)c2)c(I)c1)C(=O)O` | DFO2036 | 14.13 | inhibitor, single point |
| `N[C@@H](Cc1cc(I)c(Oc2ccc(O)c(I)c2)c(I)c1)C(=O)O` | PC26 | 15.1 | inhibitor, single point |
| `N[C@@H](Cc1cc(I)c(Oc2ccc(O)c(I)c2)c(I)c1)C(=O)O` | CP217 | 11.22 | inhibitor, single point |
| `N[C@@H](Cc1cc(I)c(Oc2ccc(O)c(I)c2)c(I)c1)C(=O)O` | TAB165 | 10 | inhibitor, single point |
| `N[C@@H](Cc1cc(I)c(Oc2ccc(O)c(I)c2)c(I)c1)C(=O)O` | CP237 | 10 | inhibitor, single point |
| `N[C@@H](Cc1cc(I)c(Oc2ccc(O)c(I)c2)c(I)c1)C(=O)O` | GB4 | 19.01 | inhibitor, single point |
| `N[C@@H](Cc1cc(I)c(Oc2ccc(O)c(I)c2)c(I)c1)C(=O)O` | Dd2 | 12.59 | inhibitor, single point |
| `N[C@@H](Cc1cc(I)c(Oc2ccc(O)c(I)c2)c(I)c1)C(=O)O` | TAB109 | 7.943 | inhibitor, partial curve, poor fit |
| `N[C@@H](Cc1cc(I)c(Oc2ccc(O)c(I)c2)c(I)c1)C(=O)O` | PC15 | 17.78 | inhibitor, single point |
| `N[C@@H](Cc1cc(I)c(Oc2ccc(O)c(I)c2)c(I)c1)C(=O)O` | CP252 | 17.78 | inhibitor, single point |
| `N[C@@H](Cc1cc(I)c(Oc2ccc(O)c(I)c2)c(I)c1)C(=O)O` | ECU | 19.95 | inhibitor, single point |
| `N[C@@H](Cc1cc(I)c(Oc2ccc(O)c(I)c2)c(I)c1)C(=O)O` | CP250 | 17.78 | inhibitor, single point |
| `N[C@@H](Cc1cc(I)c(Oc2ccc(O)c(I)c2)c(I)c1)C(=O)O` | CP286 | 17.78 | inhibitor, single point |
| `N[C@@H](Cc1cc(I)c(Oc2ccc(O)c(I)c2)c(I)c1)C(=O)O` | SC27B | 17.78 | inhibitor, single point |
| `N[C@@H](Cc1cc(I)c(Oc2ccc(O)c(I)c2)c(I)c1)C(=O)O` | N140 | 11.22 | inhibitor, partial curve, poor fit |
| `N[C@@H](Cc1cc(I)c(Oc2ccc(O)c(I)c2)c(I)c1)C(=O)O` | TAB113 | 17.78 | inhibitor, single point |
| `N[C@@H](Cc1cc(I)c(Oc2ccc(O)c(I)c2)c(I)c1)C(=O)O` | P94_40 | 12.59 | inhibitor, single point |

4 of the entries, repeated:

Compound,condition,Potency (µM),curve as filed
CO[C@H]1[C@H](O[C@H]2O[C@@H](C)[C@@H](O[C@@H]3C[C@](C)(O)[C@H](OC(=O)CC(C)C)[C@H](C)O3)[C@@H](N(C)C)[C@@H]2O)[C@@H](CC=O)C[C@@H](C)[C@@H](O)/C=C\C=C/C[C@@H](C)OC(=O)C[C@H]1OC(C)=O,ATS189,3.548,"inhibitor, single point"
N[C@@H](Cc1cc(I)c(Oc2ccc(O)c(I)c2)c(I)c1)C(=O)O,CP237,10,"inhibitor, single point"
CO[C@H]1[C@H](O[C@H]2O[C@@H](C)[C@@H](O[C@@H]3C[C@](C)(O)[C@H](OC(=O)CC(C)C)[C@H](C)O3)[C@@H](N(C)C)[C@@H]2O)[C@@H](CC=O)C[C@@H](C)[C@@H](O)/C=C\C=C/C[C@@H](C)OC(=O)C[C@H]1OC(C)=O,GB4,4.053,"inhibitor, partial curve"
N[C@@H](Cc1cc(I)c(Oc2ccc(O)c(I)c2)c(I)c1)C(=O)O,CP252,17.78,"inhibitor, single point"

From PubChem BioAssay record AID504749 (NCATS, 2011).